Data from PMC5628335.
Construct, isoform or probe ends are uncertain for at least one entry. At least one result comes from cells or an extract, where the contact may be indirect. For some of these results: No signal at the amounts used counts as a negative. At least one verdict was read from the data and is not stated in words by the source.

The chains behind the UniProt entries cited, without tags or fusion partners. Residues count along the entry.
UniProt Q13308, 31-1070: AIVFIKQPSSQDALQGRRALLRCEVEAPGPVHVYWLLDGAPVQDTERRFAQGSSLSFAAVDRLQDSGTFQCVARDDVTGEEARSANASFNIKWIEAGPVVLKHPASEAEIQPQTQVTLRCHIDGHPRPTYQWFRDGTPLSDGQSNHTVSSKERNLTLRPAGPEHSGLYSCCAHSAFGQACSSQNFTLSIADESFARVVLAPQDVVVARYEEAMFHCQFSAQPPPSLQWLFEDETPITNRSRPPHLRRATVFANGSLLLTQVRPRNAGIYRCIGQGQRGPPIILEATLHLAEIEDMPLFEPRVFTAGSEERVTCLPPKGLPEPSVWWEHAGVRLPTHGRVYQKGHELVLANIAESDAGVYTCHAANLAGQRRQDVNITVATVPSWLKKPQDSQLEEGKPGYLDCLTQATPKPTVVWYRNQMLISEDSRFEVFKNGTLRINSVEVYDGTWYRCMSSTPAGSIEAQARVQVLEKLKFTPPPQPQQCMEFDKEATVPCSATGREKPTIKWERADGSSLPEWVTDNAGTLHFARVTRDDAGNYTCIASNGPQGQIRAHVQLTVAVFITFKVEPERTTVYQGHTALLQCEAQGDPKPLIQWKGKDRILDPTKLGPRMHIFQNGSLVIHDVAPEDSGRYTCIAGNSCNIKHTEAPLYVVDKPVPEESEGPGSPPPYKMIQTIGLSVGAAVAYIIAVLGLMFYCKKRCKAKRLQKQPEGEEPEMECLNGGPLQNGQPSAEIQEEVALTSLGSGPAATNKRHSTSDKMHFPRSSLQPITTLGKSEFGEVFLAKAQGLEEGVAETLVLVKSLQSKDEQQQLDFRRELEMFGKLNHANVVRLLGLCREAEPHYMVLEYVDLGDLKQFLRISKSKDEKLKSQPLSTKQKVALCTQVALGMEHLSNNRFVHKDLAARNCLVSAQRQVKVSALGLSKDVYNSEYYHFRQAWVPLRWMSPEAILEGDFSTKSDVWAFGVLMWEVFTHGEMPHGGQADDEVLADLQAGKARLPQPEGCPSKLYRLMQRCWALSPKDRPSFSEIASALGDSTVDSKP

Columns and labels:
[1] = biological target: PTK7 (membrane protein on CEM and HeLa cells) (UniProt Q13308); experiment: flow cytometry; settings: flow cytometry: 10^6 cells/mL in 200 uL binding buffer (composition not given), 4 °C, 30 min, 3 washes, protein on the cell surface, label: 3' TAMRA, single-stranded DNA
[2] = biological target: PTK7 (membrane protein on CEM and HeLa cells) (UniProt Q13308); experiment: confocal microscopy of cells; settings: protein on the cell surface, label: 3' TAMRA, single-stranded DNA

“TTTTTTTTTTATCTAACTGCTGCGCCGCCGGGAAAATACTGTACGGTTAGA [Sgc8 aptamer (HS-Aptamer-TAMRA), free]”: binds ([1]; CEM cells, Ramos (less PTK7) as negative control, 5' thiol).
“TTTTTTTTTTATCTAACTGCTGCGCCGCCGGGAAAATACTGTACGGTTAGA [UCNP-S-Sgc8 (aptamer on upconversion nanoparticle)]”: binds ([2]; 25 ug/mL UCNP-Sgc8, 5' thiol linked by thiol-ene to acrylated UCNP); binds ([1]; CEM cells: obvious shift, Ramos (less PTK7): negligible shift, 5' thiol linked by thiol-ene to acrylated UCNP).
“TTTTTTTTTTTTTTTTTTTT [UCNP-T20 (HS-T20-TAMRA on nanoparticle)]”: no binding ([2]; negligible fluorescence, 5' thiol linked by thiol-ene to acrylated UCNP).
